{"source": "the supplement of paper PMC8728848", "assay_in_all_cases": "glycan array binding signal (z-score within array); higher = stronger binding", "settings_in_all_cases": "glycan notation: IUPAC condensed, linker removed", "key": {"[1]": {"biological_target": "GlcNAc(b1-3)[GlcNAc(b1-6)]Gal(b1-4)GlcNAc", "method_in_brief": "(§1)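 The binding signal is a Z-score computed within each array and averaged over linkers. Arrays of the same protein sequence at different concentrations or buffers were also averaged together. Data originate from 3228 arrays in the Consortium for Functional Glycomics database, kept only where the protein sequence was available.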"}, "[2]": {"biological_target": "GlcNAc(b1-3)[GlcNAc(b1-6)]GalNAc", "method_in_brief": "as §1"}, "[3]": {"biological_target": "GlcNAc(b1-4)Gal(b1-4)GlcNAc", "method_in_brief": "as §1"}, "GlcNAc(b1-4)GlcNAc": {"biological_target": "GlcNAc(b1-4)GlcNAc", "method_in_brief": "as §1"}, "[4]": {"biological_target": "GlcNAc(b1-4)GlcNAc(b1-4)GlcNAc", "method_in_brief": "as §1"}, "[5]": {"biological_target": "GlcNAc(b1-4)GlcNAc(b1-4)GlcNAc(b1-4)GlcNAc(b1-4)GlcNAc", "method_in_brief": "as §1"}, "[6]": {"biological_target": "GlcNAc(b1-4)GlcNAc(b1-4)GlcNAc(b1-4)GlcNAc(b1-4)GlcNAc(b1-4)GlcNAc", "method_in_brief": "as §1"}, "[7]": {"biological_target": "GlcNAc(b1-4)[GlcNAc(b1-6)]GalNAc", "method_in_brief": "as §1"}, "[8]": {"biological_target": "GlcNAc(b1-6)Gal(b1-4)GlcNAc", "method_in_brief": "as §1"}, "GlcNAc(b1-6)GalNAc": {"biological_target": "GlcNAc(b1-6)GalNAc", "method_in_brief": "as §1"}, "GlcNAc3Prop(b1-4)GlcNAc": {"biological_target": "GlcNAc3Prop(b1-4)GlcNAc", "method_in_brief": "as §1"}, "[9]": {"biological_target": "GlcNAc6S(b1-3)Gal(b1-4)GlcNAc", "method_in_brief": "as §1"}, "Kdn(a2-3)Gal(b1-3)GalNAc": {"biological_target": "Kdn(a2-3)Gal(b1-3)GalNAc", "method_in_brief": "as §1"}, "Kdn(a2-3)Gal(b1-3)GlcNAc": {"biological_target": "Kdn(a2-3)Gal(b1-3)GlcNAc", "method_in_brief": "as §1"}, "Kdn(a2-3)Gal(b1-4)Glc": {"biological_target": "Kdn(a2-3)Gal(b1-4)Glc", "method_in_brief": "as §1"}, "Kdn(a2-3)Gal(b1-4)GlcNAc": {"biological_target": "Kdn(a2-3)Gal(b1-4)GlcNAc", "method_in_brief": "as §1"}, "[10]": {"biological_target": "Kdn(a2-3)Gal(b1-4)[Fuc(a1-3)]GlcNAc", "method_in_brief": "as §1"}, "Kdn(a2-6)Gal(b1-4)GlcNAc": {"biological_target": "Kdn(a2-6)Gal(b1-4)GlcNAc", "method_in_brief": "as §1"}, "[11]": {"biological_target": "Man(a1-2)Man(a1-2)Man(a1-3)Man", "method_in_brief": "as §1"}, "[12]": {"biological_target": "Man(a1-2)Man(a1-2)Man(a1-6)[Man(a1-3)]Man", "method_in_brief": "as §1"}, "Man(a1-2)Man(a1-3)Man": {"biological_target": "Man(a1-2)Man(a1-3)Man", "method_in_brief": "as §1"}, "[13]": {"biological_target": "Man(a1-2)Man(a1-3)[Man(a1-2)Man(a1-6)]Man", "method_in_brief": "as §1"}, "[14]": {"biological_target": "Man(a1-2)Man(a1-3)[Man(a1-2)Man(a1-6)]Man(a1-6)[Man(a1-2)Man(a1-2)Man(a1-3)]Man", "method_in_brief": "as §1"}, "[15]": {"biological_target": "Man(a1-2)Man(a1-3)[Man(a1-2)Man(a1-6)]Man(a1-6)[Man(a1-2)Man(a1-2)Man(a1-3)]Man(b1-4)GlcNAc(b1-4)GlcNAc", "method_in_brief": "as §1"}, "[16]": {"biological_target": "Man(a1-2)Man(a1-3)[Man(a1-6)]Man(a1-6)[Man(a1-2)Man(a1-3)]Man(b1-4)GlcNAc(b1-4)GlcNAc", "method_in_brief": "as §1"}, "[17]": {"biological_target": "Man(a1-2)Man(a1-6)[Man(a1-3)]Man(a1-6)[Man(a1-2)Man(a1-2)Man(a1-3)]Man", "method_in_brief": "as §1"}, "[18]": {"biological_target": "Man(a1-2)Man(a1-6)[Man(a1-3)]Man(a1-6)[Man(a1-2)Man(a1-2)Man(a1-3)]Man(b1-4)GlcNAc(b1-4)GlcNAc", "method_in_brief": "as §1"}, "Man(a1-3)[Man(a1-6)]Man": {"biological_target": "Man(a1-3)[Man(a1-6)]Man", "method_in_brief": "as §1"}, "[19]": {"biological_target": "Man(a1-3)[Man(a1-6)]Man(a1-6)[Man(a1-2)Man(a1-3)]Man(b1-4)GlcNAc(b1-4)GlcNAc", "method_in_brief": "as §1"}, "[20]": {"biological_target": "Man(a1-3)[Man(a1-6)]Man(a1-6)[Man(a1-3)]Man", "method_in_brief": "as §1"}, "[21]": {"biological_target": "Man(a1-3)[Man(a1-6)]Man(a1-6)[Man(a1-3)]Man(b1-4)GlcNAc(b1-4)GlcNAc", "method_in_brief": "as §1"}, "[22]": {"biological_target": "Man(a1-3)[Man(a1-6)]Man(b1-4)GlcNAc(b1-4)GlcNAc", "method_in_brief": "as §1"}, "[23]": {"biological_target": "Man(a1-3)[Man(a1-6)]Man(b1-4)GlcNAc(b1-4)[Fuc(a1-6)]GlcNAc", "method_in_brief": "as §1"}, "Man(a1-6)Man": {"biological_target": "Man(a1-6)Man", "method_in_brief": "as §1"}, "Man(b1-4)GlcNAc": {"biological_target": "Man(b1-4)GlcNAc", "method_in_brief": "as §1"}, "Neu5Ac(a2-3)Gal": {"biological_target": "Neu5Ac(a2-3)Gal", "method_in_brief": "as §1"}, "[24]": {"biological_target": "Neu5Ac(a2-3)Gal(b1-3)GalNAc", "method_in_brief": "as §1"}, "[25]": {"biological_target": "Neu5Ac(a2-3)Gal(b1-3)GalNAc(b1-3)Gal(a1-4)Gal(b1-4)Glc", "method_in_brief": "as §1"}}, "note": "This is one part of the list."}
{"binder": "CALR truncated at D342 (Homo sapiens) (protein) EPAVYFKEQFLDGDGWTSRWIESKHKSDFGKFVLSSGKFYGDEEKDKGLQTSQDARFYALSASFEPFSNKGQTLVVQFTVKHEQNIDCGGGYVKLFPNSLDQTDMHGDSEYNIMFGPDICGPGTKKVHVIFNYKGKNVLINKDIRCKDDEFTHLYTLIVRPDNTYEVKIDNSQVESGSLEDDWDFLPPKKIKDPDASKPEDWDERAKIDDPTDSKPEDWDKPEHIPDPDAKKPEDWDEEMDGEWEPPVIQNPEYKGEWKPRQIDNPDYKGTWIHPEIDNPEYSPDPSIYAYDNFGVLGLDLWQVKSGTIFDNFLITNDEAYAEEFGNETWGVTKAAEKQMKD", "values": [{"measurement": "glycan array binding signal (z-score)", "setting": "[1]", "value": -1.21}, {"measurement": "glycan array binding signal (z-score)", "setting": "[2]", "value": 0.218}, {"measurement": "glycan array binding signal (z-score)", "setting": "[3]", "value": -0.386}, {"measurement": "glycan array binding signal (z-score)", "setting": "GlcNAc(b1-4)GlcNAc", "value": -0.824}, {"measurement": "glycan array binding signal (z-score)", "setting": "[4]", "value": -0.875}, {"measurement": "glycan array binding signal (z-score)", "setting": "[5]", "value": -0.566}, {"measurement": "glycan array binding signal (z-score)", "setting": "[6]", "value": 0.08}, {"measurement": "glycan array binding signal (z-score)", "setting": "[7]", "value": -0.914}, {"measurement": "glycan array binding signal (z-score)", "setting": "[8]", "value": -1.14}, {"measurement": "glycan array binding signal (z-score)", "setting": "GlcNAc(b1-6)GalNAc", "value": 0.058}, {"measurement": "glycan array binding signal (z-score)", "setting": "GlcNAc3Prop(b1-4)GlcNAc", "value": -0.402}, {"measurement": "glycan array binding signal (z-score)", "setting": "[9]", "value": 0.023}, {"measurement": "glycan array binding signal (z-score)", "setting": "Kdn(a2-3)Gal(b1-3)GalNAc", "value": -0.218}, {"measurement": "glycan array binding signal (z-score)", "setting": "Kdn(a2-3)Gal(b1-3)GlcNAc", "value": -0.98}, {"measurement": "glycan array binding signal (z-score)", "setting": "Kdn(a2-3)Gal(b1-4)Glc", "value": 1.27}, {"measurement": "glycan array binding signal (z-score)", "setting": "Kdn(a2-3)Gal(b1-4)GlcNAc", "value": -0.087}, {"measurement": "glycan array binding signal (z-score)", "setting": "[10]", "value": -0.717}, {"measurement": "glycan array binding signal (z-score)", "setting": "Kdn(a2-6)Gal(b1-4)GlcNAc", "value": -1.32}, {"measurement": "glycan array binding signal (z-score)", "setting": "[11]", "value": -0.176}, {"measurement": "glycan array binding signal (z-score)", "setting": "[12]", "value": -1}, {"measurement": "glycan array binding signal (z-score)", "setting": "Man(a1-2)Man(a1-3)Man", "value": -0.677}, {"measurement": "glycan array binding signal (z-score)", "setting": "[13]", "value": -0.28}, {"measurement": "glycan array binding signal (z-score)", "setting": "[14]", "value": -0.563}, {"measurement": "glycan array binding signal (z-score)", "setting": "[15]", "value": -0.13}, {"measurement": "glycan array binding signal (z-score)", "setting": "[16]", "value": -0.687}, {"measurement": "glycan array binding signal (z-score)", "setting": "[17]", "value": 3.6}, {"measurement": "glycan array binding signal (z-score)", "setting": "[18]", "value": -0.308}, {"measurement": "glycan array binding signal (z-score)", "setting": "Man(a1-3)[Man(a1-6)]Man", "value": 0.893}, {"measurement": "glycan array binding signal (z-score)", "setting": "[19]", "value": -0.47}, {"measurement": "glycan array binding signal (z-score)", "setting": "[20]", "value": -0.102}, {"measurement": "glycan array binding signal (z-score)", "setting": "[21]", "value": -0.237}, {"measurement": "glycan array binding signal (z-score)", "setting": "[22]", "value": 0.531}, {"measurement": "glycan array binding signal (z-score)", "setting": "[23]", "value": 0.905}, {"measurement": "glycan array binding signal (z-score)", "setting": "Man(a1-6)Man", "value": 0.051}, {"measurement": "glycan array binding signal (z-score)", "setting": "Man(b1-4)GlcNAc", "value": -0.676}, {"measurement": "glycan array binding signal (z-score)", "setting": "Neu5Ac(a2-3)Gal", "value": -1.01}, {"measurement": "glycan array binding signal (z-score)", "setting": "[24]", "value": 0.44}, {"measurement": "glycan array binding signal (z-score)", "setting": "[25]", "value": 0.518}]}
